Reference: PMC1794522
Results are given in words; binding and its absence hold for the method and conditions named. In cells and extracts the contact can be indirect. Some results given as binding are weak or reduced against the parent protein; the word gives no strength.

Sequences of proteins named here, by UniProt entry; tags and fusion partners are left off.
UniProt P35568: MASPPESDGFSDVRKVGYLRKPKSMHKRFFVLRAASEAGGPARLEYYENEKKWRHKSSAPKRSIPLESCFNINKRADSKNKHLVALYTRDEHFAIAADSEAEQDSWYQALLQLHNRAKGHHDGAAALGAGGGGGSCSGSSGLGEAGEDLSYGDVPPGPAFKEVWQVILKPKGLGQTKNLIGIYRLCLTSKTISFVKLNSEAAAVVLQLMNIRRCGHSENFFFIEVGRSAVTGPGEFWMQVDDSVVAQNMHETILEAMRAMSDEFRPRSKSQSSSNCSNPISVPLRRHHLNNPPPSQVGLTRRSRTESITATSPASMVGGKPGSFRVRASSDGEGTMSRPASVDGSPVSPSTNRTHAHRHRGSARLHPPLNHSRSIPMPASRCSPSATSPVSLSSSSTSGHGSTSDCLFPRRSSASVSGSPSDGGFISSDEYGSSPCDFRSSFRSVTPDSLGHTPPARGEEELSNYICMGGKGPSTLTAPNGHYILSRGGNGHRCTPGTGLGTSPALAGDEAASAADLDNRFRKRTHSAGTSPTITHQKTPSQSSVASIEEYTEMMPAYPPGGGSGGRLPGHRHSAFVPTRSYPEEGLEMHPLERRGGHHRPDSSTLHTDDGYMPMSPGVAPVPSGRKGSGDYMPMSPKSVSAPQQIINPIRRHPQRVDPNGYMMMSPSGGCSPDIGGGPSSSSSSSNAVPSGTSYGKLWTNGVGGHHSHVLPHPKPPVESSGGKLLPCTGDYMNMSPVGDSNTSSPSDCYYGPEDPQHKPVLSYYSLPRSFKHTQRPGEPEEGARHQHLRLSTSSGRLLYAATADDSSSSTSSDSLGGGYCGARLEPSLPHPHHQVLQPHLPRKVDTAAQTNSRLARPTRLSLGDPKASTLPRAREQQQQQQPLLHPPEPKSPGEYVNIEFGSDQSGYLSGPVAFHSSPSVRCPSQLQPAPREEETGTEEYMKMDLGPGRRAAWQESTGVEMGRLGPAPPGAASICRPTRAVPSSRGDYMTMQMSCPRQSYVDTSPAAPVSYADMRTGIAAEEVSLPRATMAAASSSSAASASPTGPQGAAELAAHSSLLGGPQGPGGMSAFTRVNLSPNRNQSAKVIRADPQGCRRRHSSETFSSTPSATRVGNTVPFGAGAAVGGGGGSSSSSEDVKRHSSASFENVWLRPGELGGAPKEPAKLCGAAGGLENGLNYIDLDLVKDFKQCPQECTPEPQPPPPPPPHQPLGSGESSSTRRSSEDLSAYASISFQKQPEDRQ
UniProt P62993: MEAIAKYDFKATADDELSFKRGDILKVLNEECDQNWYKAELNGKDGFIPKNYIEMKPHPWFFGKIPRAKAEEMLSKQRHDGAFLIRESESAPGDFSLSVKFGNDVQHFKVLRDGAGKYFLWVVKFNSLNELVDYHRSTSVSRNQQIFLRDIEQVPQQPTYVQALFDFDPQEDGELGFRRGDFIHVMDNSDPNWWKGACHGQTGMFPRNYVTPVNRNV

Target: insulin receptor substrate (IRS)-1 (human (endogenous in primary subchondral bone osteoblasts)) (UniProt P35568)
Assay: co-IP; 175 ug of RIPA lysate of primary normal or OA osteoblasts (serum-free overnight; basal or 50 ng/ml IGF-1 for various times) incubated with 4 ug anti-IRS-1 antibody overnight at 4 C; SDS-PAGE and western blot of the partner

Substance: Grb2 (from UniProt P62993 1-217)
- binding: binds weakly
